The values below come from patent US5849866 (dated 1998).

This series in a line: general procedure: solution-phase peptide synthesis; isobutylchloroformate / N-methylmorpholine (mixed anhydride).

Substance “1,1,1-Trifluoro-3-[(N-acetylprolyl)alanylprolylamino]butan-2-ol” came in with a step yield (coupling step) of 23%.

As to “1,1,1-Trifluoro-3-[(N-tert-butyloxycarbonylalanyl)alanylprolylamino]-4-methylpentan-2-ol”, the step yield (coupling step) came to 76%.

For the setting “late stage modification step”, “1,1,1-Trifluoro-3-[alanyl-alanylprolylamino]-4-methylpentan-2-one” displayed a step yield of 96%. “3-[(N-acetylprolyl)alanylprolylamino]-2-hydroxybutanoic acid, methyl ester”: the step yield (coupling step) was determined as 36%. With “4-[Methoxysuccinyl-L-alanyl-L-alanyl-L-prolyl]amino 2,2-difluoro 5-methyl 3-oxo hexanoic acid, ethyl ester”, the step yield (late stage modification step) was found to be 65%.

In the case of “4-[methoxysuccinyl L-alanyl-L-alanyl-L-prolyl]amino 2,2-difluoro 3-hydroxy 5-methyl hexenoic acid, ethyl ester”, the step yield (coupling step) worked out at 85%. Under “conjugation step”, “Dansyl peptide 1,1,1-Trifluoro-3-(alanylalanylprolylamino)-4-methylpentan-2-one” yielded a conjugation yield of 68%.
